Record: PubChem BioAssay AID1671195 (Yale University, 2021)
Screen: 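Regulators of LDL receptor activity judged by labelled LDL uptake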 (primary screen). Cell system: human Huh7 hepatoma cells. Reagents: siRNA pool against human genes, 18 nM. Time to read-out: about 2 to 2.5 days of knockdown, then 8 h LDL uptake. Challenge: DiI-labelled LDL at 30 µg/ml for 8 h, in lipoprotein-deficient serum medium. Detection: 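Per-cell DiI-LDL intensity by automated imaging; well means scaled to the plate median and given as a robust z-score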. Direction: robust z-score: higher = more LDL uptake after knockdown. Active means: 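a gene counts as active if at least two replicate z-scores exceed ±2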.
Here is one part, drawn at random, of about 22,000 reagents tested. In the full data, about 1,510 (6.9%) are marked active. 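Active includes knockdowns raising or lowering LDL uptake; positive z-scores mean more uptake, negative mean less.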

THRSP (thyroid hormone responsive): robust z-score, replicate 1 = -0.346; robust z-score, replicate 2 = 0.149; robust z-score, replicate 3 = -0.0166; Outcome = inactive
CNKSR2 (connector enhancer of kinase suppressor of Ras 2): robust z-score, replicate 1 = -0.812; robust z-score, replicate 2 = -1.45; robust z-score, replicate 3 = -1.42; Outcome = inactive
NAP1L5 (nucleosome assembly protein 1 like 5): robust z-score, replicate 1 = 0.386; robust z-score, replicate 2 = 0.337; robust z-score, replicate 3 = 0.486; Outcome = inactive
TRIM8 (tripartite motif containing 8): robust z-score, replicate 1 = 0.913; robust z-score, replicate 2 = -0.851; robust z-score, replicate 3 = -0.104; Outcome = inactive
FAM171A2 (family with sequence similarity 171 member A2): robust z-score, replicate 1 = -0.257; robust z-score, replicate 2 = -0.122; robust z-score, replicate 3 = -0.156; Outcome = inactive
ZNF230 (zinc finger protein 230): robust z-score, replicate 1 = 0.682; robust z-score, replicate 2 = -0.168; robust z-score, replicate 3 = -0.497; Outcome = inactive
LOC440983 (retired record): robust z-score, replicate 1 = -0.111; robust z-score, replicate 2 = -0.792; robust z-score, replicate 3 = -0.652; Outcome = inactive
PIAS4 (protein inhibitor of activated STAT 4): robust z-score, replicate 1 = -1.66; robust z-score, replicate 2 = -0.756; robust z-score, replicate 3 = -0.116; Outcome = inactive
SYN1 (synapsin I): robust z-score, replicate 1 = 0.35; robust z-score, replicate 2 = -0.00837; robust z-score, replicate 3 = -0.419; Outcome = inactive
EDEM1 (ER degradation enhancing alpha-mannosidase like protein 1): robust z-score, replicate 1 = -0.104; robust z-score, replicate 2 = -0.303; robust z-score, replicate 3 = -0.0657; Outcome = inactive
LINC02874 (long independently transcribed non-coding RNA 2874): robust z-score, replicate 1 = 1.67; robust z-score, replicate 2 = 2.13; robust z-score, replicate 3 = 1.74; Outcome = inactive
FN3KRP (fructosamine 3 kinase related protein): robust z-score, replicate 1 = 1.11; robust z-score, replicate 2 = 2.08; robust z-score, replicate 3 = 2.96; Outcome = active
SLF2 (SMC5/6 complex localization factor 2): robust z-score, replicate 1 = 0.265; robust z-score, replicate 2 = 0.8; robust z-score, replicate 3 = 0.631; Outcome = inactive
FGGY (FGGY carbohydrate kinase domain containing): robust z-score, replicate 1 = -0.517; robust z-score, replicate 2 = -0.26; robust z-score, replicate 3 = -1.05; Outcome = inactive
LOC440490 (retired record): robust z-score, replicate 1 = -0.275; robust z-score, replicate 2 = -0.698; robust z-score, replicate 3 = -0.286; Outcome = inactive
NPPC (natriuretic peptide C): robust z-score, replicate 1 = -0.295; robust z-score, replicate 2 = -0.786; robust z-score, replicate 3 = -1.77; Outcome = inactive
MTM1 (myotubularin 1): robust z-score, replicate 1 = 2.65; robust z-score, replicate 2 = 2.28; robust z-score, replicate 3 = 1.46; Outcome = active
SERPINB4 (serpin family B member 4): robust z-score, replicate 1 = 0.141; robust z-score, replicate 2 = -0.493; robust z-score, replicate 3 = 0.579; Outcome = inactive
PITHD1 (PITH domain containing 1): robust z-score, replicate 1 = -1.36; robust z-score, replicate 2 = -0.699; robust z-score, replicate 3 = -0.172; Outcome = inactive
MS4A13 (membrane spanning 4-domains A13): robust z-score, replicate 1 = -0.552; robust z-score, replicate 2 = -0.531; robust z-score, replicate 3 = 0.168; Outcome = inactive
RCOR2 (REST corepressor 2): robust z-score, replicate 1 = -0.853; robust z-score, replicate 2 = -0.705; robust z-score, replicate 3 = -0.921; Outcome = inactive
PHF23 (PHD finger protein 23): robust z-score, replicate 1 = -0.686; robust z-score, replicate 2 = -0.00478; robust z-score, replicate 3 = -0.522; Outcome = inactive
CYP2C9 (cytochrome P450 family 2 subfamily C member 9): robust z-score, replicate 1 = 0.609; robust z-score, replicate 2 = 0.366; robust z-score, replicate 3 = 0.14; Outcome = inactive
CH25H (cholesterol 25-hydroxylase): robust z-score, replicate 1 = 1.83; robust z-score, replicate 2 = 0.442; robust z-score, replicate 3 = 1.6; Outcome = inactive

Entries above called active, once more:
FN3KRP (fructosamine 3 kinase related protein): robust z-score, replicate 1 = 1.11; robust z-score, replicate 2 = 2.08; robust z-score, replicate 3 = 2.96; Outcome = active
MTM1 (myotubularin 1): robust z-score, replicate 1 = 2.65; robust z-score, replicate 2 = 2.28; robust z-score, replicate 3 = 1.46; Outcome = active
